The target of this assay is human RHOG (residues 1-179) (human) (UniProt P84095). The assay is described as follows: NMR titration; ELMO2 (WT or L43A) titrated into 15N-labeled GMPPNP-loaded RHOG; 1H/15N HSQC, 600 MHz, 25 °C; 20 mM Tris pH 7.5, 100 mM NaCl, 5 mM MgCl2, 1 mM DTT, 10% D2O; both purified.

Sequences of proteins named here, by UniProt entry; tags and fusion partners are left off. Residues count along the entry.
UniProt P84095, residues 1-179: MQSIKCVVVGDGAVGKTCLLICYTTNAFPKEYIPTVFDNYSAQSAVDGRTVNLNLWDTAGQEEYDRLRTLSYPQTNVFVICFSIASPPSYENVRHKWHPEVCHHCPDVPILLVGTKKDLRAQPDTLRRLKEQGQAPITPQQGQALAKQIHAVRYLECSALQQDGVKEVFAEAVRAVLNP

These are yes or no findings as the source states them, for the method shown. Some binding calls cover weakened binding; strength is not graded here.

B1: murine ELMO2 full-length, wild type (protein, UniProt Q8BHL5 1-732)
chain: MPPPSDIVKVAIEWPGANAQLLEIDQKRPLASIIKEVCDGWSLPNPEYYTLRYADGPQLYVTEQTRNDIKNGTILQLAVSPSRAARQLMERTQSSSMETRLDAMKELAKLSADVTFATEFINMDGIIVLTRLVESGTKLLSHYSEMLAFTLTAFLELMDHGIVSWDMVSVTFIKQIAGYVSQPMVDVSILQRSLAILESMVLNSQSLYQKIAEEITVGQLISHLQVSNQEIQTYAIALINALFLKAPEDKRQDKHLNPLDLPVTDMANAFAQKHLRSIILNHVIRGNRPIKTEMAHQLYVLQVLTFNLLEERMMTKMDPNDQAQRDIIFELRRIAFDAESDPSNVPGSGTEKRKAMYTKDYKMLGFTNHINPALDFTQTPPGMLALDNMLYLAKVHQDTYIRIVLENSSREDKHECPFGRSAIELTKMLCEILQVGELPNEGRNDYHPMFFTHDRAFEELFGICIQLLNKTWKEMRATAEDFNKVMQVVREQITRALPSKPNSLDQFKSKLRSLSYSEILRLRQSERMSQDDFQSPPIVELREKIQPEILELIKQQRLNRLCEGSSFRKIGNRRRQERFWHCRLALNHKVLHYGDLDDNPQGEVTFESLQEKIPVADIKAIVTGKDCPHMKEKSALKQNKEVLELAFSILYDPDETLNFIAPNKYEYCIWIDGLSALLGKDMSSELTKSDLDTLLSMEMKLRLLDLENIQIPEAPPPVPKEPSSYDFVYHYG
On to B1, for which the binding entry was “binds”.

Values taken from article PMC9674853.
